Results are given in words; binding and its absence hold for the method and conditions named. Some entries that bind do so weakly or less than the wild type. Where a sequence is shown, tags or fusion partners need not be part of it.
Biological target: T1, GFP-ExoS^233–419 (Pseudomonas aeruginosa) (UniProt G3XDA1)
T1 sequence: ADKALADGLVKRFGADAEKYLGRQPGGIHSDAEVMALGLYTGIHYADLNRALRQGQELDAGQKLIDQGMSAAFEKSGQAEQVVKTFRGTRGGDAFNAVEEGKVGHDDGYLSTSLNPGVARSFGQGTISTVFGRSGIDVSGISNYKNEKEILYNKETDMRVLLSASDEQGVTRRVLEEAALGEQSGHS
Assay: fluorescence polarisation; both purified

Protein sequences, listed by entry. Tags and fused reporters are not part of them. Residues count along the entry.
UniProt P31946, residues 1-239: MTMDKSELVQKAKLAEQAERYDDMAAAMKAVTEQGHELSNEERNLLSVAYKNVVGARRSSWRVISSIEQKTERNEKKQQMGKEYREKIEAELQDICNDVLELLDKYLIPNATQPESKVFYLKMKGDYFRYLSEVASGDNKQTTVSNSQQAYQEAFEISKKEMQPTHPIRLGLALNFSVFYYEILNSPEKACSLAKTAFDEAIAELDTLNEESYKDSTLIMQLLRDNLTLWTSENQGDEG

14-3-3β (purified alone) (from UniProt P31946 1-239)
binding: binds

Reference: article PMC6141617
